# Some entries share one result that the patent states for a list of compounds. Some compounds share one range, which may span the group rather than tell each member.
# System: DsaD/E complex
# Experiment: Analytical-scale Cα/Cβ H/D exchange with purified DsaD and DsaE
# Type: biochemical, Streptomyces scopuliridis
# Conditions: 10 mM substrate, 5 μM DsaD, 50 μM DsaE (10:1), 37° C., 8 h
# Experimental: FIGS. 3A-3C. Optimization of H/D exchange reactions and evaluation of the substrate scope. FIG. 3A. Optimization of Cβ-deuteration by increasing equivalents of partner protein DsaE. FIG. 3B. Evaluation of substrate scope of dual-protein-catalyzed Cα/Cβ deuteration under optimized conditions. FIG. 3C. UV-visible spectroscopy used to evaluate non-native substrate binding to DsaD. Reaction conditions: 10 mM amino acid substrate, 50 μM DsaE, 5 μM DsaD (10:1), 50 mM sodium phosphate (pD 8.4), 0.1 mM PLP, D2O, 37° C., 8 h. Reactions performed in duplicate, and percentage isotope incorporation is reported as the average of the replicates.
# General procedure analytical scale deuteration reactions: α/β deuteration reactions were performed as follows. A 1 mL Eppendorf tube was charged with amino acid (10-20 mM final concentration), Na3PO4 buffer pD 8.4 (50 mM final concentration), PLP (100 μM final concentration), purified enzymes or appropriate lysate and D2O and to the appropriate final volume (typically 50 μL). Reactions were carried out at 37° C. for 8 h and quenched by the addition of 3 volumes of acetonitrile. Precipitated biomolecules were pelleted by centrifugation (16,000×g, 10 min) and samples were processed as described below.
# Marfey's derivatization of analytical scale reactions: Derivatization of the resulting analytical scale product mixture (to increase overall signal and enable reverse phase chromatographic analysis) was achieved by treatment with Marfey's reagent^2 (1-fluoro-2-4-dinitrophenyl-5-L-alanine amide, L-FDAA) using the following protocol. 25 μL of quenched reaction mix (final amine concentration, 1.6 mM) was added to an Eppendorf tube with 50 μL of 15 mM NaHCO3 (final concentration, 5 mM) and 75 μL of 5 mM L-FDAA (final concentration, 2.5 mM). Derivatization reactions were carried out for 10-12 h before quenching with 150 μL of 60 mM HCl dissolved in acetonitrile. Final reaction analysis was carried out by UPLC-DAD-MS and quantitation as described below.
# Quantitation of deuteration in analytical scale reactions: Deuteration reactions were analyzed by UPLC-DAD-MS with single ion recording (SIR) channels set to record a spectrum with the appropriate isotopic mass in positive mode. The area under the curve of recorded SIR peaks was obtained and normalized to account for natural isotopic abundance distributions (e.g. ^13C, ^15N, ^2H, ^34S, etc). Percent deuterium incorporation was calculated by the formula below. These measurements were carried out in an iterative fashion to measure Cα deuteration and Cβ deuteration.
row,SMILES,Cα and Cβ D-incorporation
1,"CCC[C@H](N)C(=O)O [Nva, norvaline]",88-99%
2,"CC(C)[C@H](N)C(=O)O [Val, valine]",88-99%
3,"CCCC[C@H](N)C(=O)O [Nle, norleucine]",88-99%
4,"CC[C@H](C)[C@H](N)C(=O)O [Ile, isoleucine]",88-99%
5,"CC(C)C[C@H](N)C(=O)O [Leu, leucine]",88-99%

# Source: US12662688B2, “Site-selective deuteration of amino acids through dual protein catalysis” (Wisconsin Alumni Research Foundation, priority 2022, dated 2026)
